Screening data, single-dose tests

Results are given as percent effect. The controls that fix the scale are not given in the record; negative values are as filed. This is an unselected part of the compounds tested. Two or more numbers in one place are separate tests of the same structure; such repeats can differ widely.

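Growth of Mycobacterium tuberculosis over 3 days (7H9 medium with glucose and tyloxapol); the read-out is not stated. Concentration: 50 µM. Higher reads as more growth inhibition (inferred: compounds with an IC50 in retests scored well above the rest). Size under these conditions: about 69,000 compounds, about 760 of them at 50% or above in at least one test.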

| # | compound | percent effect |
|---|---|---|
| 1 | `Cc1c(C)n(CC(O)CN2CCC(O)CC2)c2c(Cl)cccc12` (centres unmarked) | -47.89% |
| 2 | `Cc1cnn(CC2CCN(CC(O)COc3ccc(F)cc3)CC2)c1` (centres unmarked) | 10.88% |
| 3 | `CCS(=O)(=O)N(C)CCCNC(=O)c1cc(Cl)cc2cccnc12` | 18.74% |
| 4 | `CC(NC(=O)N1CCCN(C)CC1)c1ccc2c(c1)OCCO2` (centres unmarked) | -20.33% |
| 5 | `Cn1c(-c2ccccc2Cl)nc2cc(C(=O)NCCOCCO)cnc21` | 24.16% & 6.209% |
| 6 | `CN1CCC(N(CCc2ccccc2)C(=O)c2ccoc2)CC1` | -3.525% |
| 7 | `CCN(C)S(=O)(=O)NCC(O)c1c(Cl)cccc1Cl` (centres unmarked) | -9.97% & -3.503% |
| 8 | `CCC1CN(C(=O)c2ccc(=O)[nH]c2)CCC(=O)N1Cc1ccccc1` (centres unmarked) | -9.563% & -12.63% |
| 9 | `Cc1nc(CN2CCCn3c(nc(Cn4cncn4)cc3=O)C2)cs1.O=C(O)C(F)(F)F` | -24.17% |
| 10 | `CCC(NCc1ncc[nH]1)c1nc(C(F)(F)F)cs1` (centres unmarked) | 9.655% & 5.751% |
| 11 | `CC(NC(=O)NCCCc1n[nH]c(N)c1C#N)c1cccs1` (centres unmarked) | 11.7% |
| 12 | `Cc1cc(CN2CCC(C3CCN(Cc4cccnc4)CC3)C2)[nH]n1` (centres unmarked) | 7.27% & 0.4069% |
| 13 | `Cc1csc(NC(=O)C2CCN(Cc3cccc4c3OCCO4)CC2)n1` | 25.02% |
| 14 | `C=C(C)COc1cccc(CNC(COC)c2ccnn2C)c1` (centres unmarked) | 2.923% |
| 15 | `[H][C@@]12CN(C(=O)C3CC=CC3)C[C@]1([H])C(=O)N(CCN(C)C)C2` | -13.11% & -4.684% |
| 16 | `Cc1cc(-c2cc(N)c(=O)n(CC(=O)N3CCCC(C)C3)n2)c(C)o1` (centres unmarked) | 7.027% |
| 17 | `COc1ccc2[nH]cc(C(=O)N3C[C@@H](O)[C@H](N4CCCC4)C3)c2c1` | 7.594% |
| 18 | `CC1(Cc2ccc3c(c2)OCO3)CCCN(S(=O)(=O)N2CCOCC2)C1` (centres unmarked) | 11.54% & 16.1% |
| 19 | `Cc1cc(=O)c(C(=O)N(C)Cc2ccc(Cl)c(F)c2)c[nH]1` | -23.23% |
| 20 | `CCN(CC)Cc1ccccc1NCc1c(C)noc1C` | 2.973% |
| 21 | `CC(=O)N1CC[C@H](c2nnc(Cc3c[nH]c4ccccc34)o2)C1` | 10.54% & -4.177% |
| 22 | `COCCNC(=O)Cn1cc(OCc2ccc(F)cc2)c(=O)cc1C` | 4.055% |
| 23 | `CN(C)c1nc(N2CCCC2)nc2c1CCN(Cc1nccn1C)CC2.O=C(O)C(F)(F)F` | 4.37% |
| 24 | `CCN1C(=O)C2(CCN(CCN(C)C)CC2)c2ccccc21.O=C(O)C(F)(F)F.O=C(O)C(F)(F)F` | 7.89% |
| 25 | `COCc1ncc(CN2CCC(Oc3ccccc3C)CC2)cn1` | 8.585% |
| 26 | `CN(C)C(=O)Cc1ccc(NC(=O)NC2CC2)cc1` | -0.2572% |
| 27 | `O=C(O)C(F)(F)F.[H][C@]12CCC[C@@]1(COCc1cccnc1)CN(C(=O)c1ccsc1)C2` | 7.536% |
| 28 | `CNC(=O)c1cc(C)n(-c2cccc(OC)c2)c1C` | -20.87% |
| 29 | `O=C(O)C(F)(F)F.[H][C@@]12CN(CC(C)C)C[C@]1([H])C(=O)N(CC)C21CCN(C(=O)NC(C)C)CC1` | 0.7951% & -29.76% |
| 30 | `CCN(Cc1nnsc1Cl)C(C)c1ccc(C#N)cc1` (centres unmarked) | 5.358% |
| 31 | `CN(CCc1ccccc1)C(=O)c1cc(CN2CCC(O)CC2)on1` | 34.17% |
| 32 | `CC(C(=O)Nc1ccc(C#N)cc1)N1CCc2ccccc21` (centres unmarked) | 21.68% |
| 33 | `CS(=O)(=O)N1CCCn2nc(CNc3ncccn3)cc2C1` | -9.232% |
| 34 | `Cn1nc(C2CCCN(C(=O)Cc3ccsc3)C2)c2nccnc21` (centres unmarked) | 6.445% |
| 35 | `Cc1cc(C)n(Cc2ccc(C(=O)NCCN3CCOCC3)cc2)n1` | -9.464% & -0.7513% |
| 36 | `CC(C)c1cc(N2CCCC3(CCN(C)C3)C2)ncn1` (centres unmarked) | -2.449% & 0.964% |
| 37 | `COCC1c2nnn(CC3CC3)c2CCN1C(=O)N1CCCC1` (centres unmarked) | -12.67% & 7.797% |
| 38 | `Cc1nc(CN2CCCC3(CCN(c4cccnc4)C3=O)C2)cs1.O=C(O)C(F)(F)F.O=C(O)C(F)(F)F` (centres unmarked) | -61.41% & -7.371% |
| 39 | `CC(NCc1c(C(C)C)nn(C)c1N(C)C)C(=O)NC1CCCC1.Cl` (centres unmarked) | -14.19% |
| 40 | `Cc1cc(C)n(CC2CCCN2Cc2ncc(C(C)(C)C)o2)n1` (centres unmarked) | 24.51% |
| 41 | `Cc1noc(C)c1C(=O)NCc1cccnc1N(C)C` | 33.15% |
| 42 | `Cc1cc(CNC(=O)NC(C)c2ccc(N3CCOCC3)cc2)no1` (centres unmarked) | -3.693% |
| 43 | `Cc1cc(C(=O)Nc2ccc(-c3nnc(N(C)C)o3)cc2)oc1C` | -8.798% |
| 44 | `COc1ccc(N2CCN(C(=O)Cn3nc(C)c(Cl)c3C)CC2)cc1` | 9.267% |
| 45 | `Cc1cnn(CCNCc2ccccc2OCc2ccccn2)c1` | 11.12% |
| 46 | `c1cc(CN(CCCn2ccnc2)Cc2ccoc2)ccn1` | 7.484% |
| 47 | `CC(=O)N1CCCC(C(=O)N2Cc3nc(C)n(C)c(=O)c3C2)C1` (centres unmarked) | -12.12% |
| 48 | `Cc1cccc(CO[C@@H]2CO[C@@]3(CCN(S(=O)(=O)N(C)C)C3)C2)n1.O=C(O)C(F)(F)F` | 0.754% & 11.27% |
| 49 | `Cc1ccccc1-n1ncc(C(=O)N2CCCC2c2cnn(C)c2)c1C` (centres unmarked) | 18.86% |
| 50 | `CCCN(CC)C(=O)c1cc(Cn2c(C)nc3ccccc32)[nH]n1` | 20.29% & 1.578% |
| 51 | `Cc1cccc(-c2ncc(CNC(C)CO)cn2)c1` (centres unmarked) | -10.46% |
| 52 | `COCC(O)CN(C)C(=O)NC1CCN(Cc2ccccn2)CC1` (centres unmarked) | 3.435% |
| 53 | `CCN(CCCNc1ncnc2cc(F)c(F)cc12)S(C)(=O)=O` | 19.19% & 3.433% |
| 54 | `CN(C)c1ncccc1CNS(=O)(=O)c1c(F)cccc1F` | -19.4% |
| 55 | `CC(=O)Nc1ccsc1C(=O)Nc1cnc2n1CCCC2` | -25.14% & -1.524% |
| 56 | `[H][C@]12CC[C@@]3(N=C(c4ccccc4)NC3=O)[C@@]1([H])CN(Cc1ccco1)C2` | 15.78% |
| 57 | `CC(C)CC(NC(=O)c1cccc(F)c1F)C(=O)Nc1cc[nH]n1` (centres unmarked) | 6.965% |
| 58 | `O=C(NCc1cc2ccccc2s1)c1cc(CN2CCCC(O)C2)on1` (centres unmarked) | -27.3% |
| 59 | `CN(C)CCN(C)C(=O)Cc1ccc2c(c1)OCCO2.O=C(O)CC(O)(CC(=O)O)C(=O)O` | 18.74% |
| 60 | `COCCN1CCC(Nc2ccc(C#N)cc2F)CC1` | 15.62% & 3.071% |
| 61 | `Cc1cnn(CC2CN(Cc3nc4ccccc4c(=O)[nH]3)CCO2)c1` (centres unmarked) | 18.47% |
| 62 | `NC(=O)N1CCCN(CCCSCc2ccccc2)CC1` | -27.98% |
| 63 | `[H][C@@]12CN(Cc3ccoc3)C[C@]1([H])OCCN2CC(=O)N(C)C` | -24.1% |
| 64 | `CC(O)CN1CCN(C(=O)c2ccc3c(c2)COC3)CC1` (centres unmarked) | 26.04% |
| 65 | `CCCc1nnc2sc(CC3CN(Cc4ccccc4)CCO3)nn12` (centres unmarked) | -8.067% |
| 66 | `Cn1nnc2c1C(COCC1CC1)CN(C(=O)Cc1ccccn1)C2` (centres unmarked) | 29.51% & 1.163% |
| 67 | `CCn1cc(NC(=O)NCC(O)COc2cccc(F)c2)cn1` (centres unmarked) | -4.084% |
| 68 | `COc1c(C2CCCN2c2ncnc3c2CCC3)c(C)nn1C` (centres unmarked) | -32.37% |
| 69 | `O=C(O)C(F)(F)F.O=C(O)C(F)(F)F.[H][C@@]12CN(Cc3nccn3C)C[C@]1([H])OCCN2Cc1c(C)noc1C` | 4.733% |
| 70 | `[H][C@]12CN(S(=O)(=O)c3ccc(C(=O)NC[C@H]4CCCO4)cc3)[C@]([H])(CN1)C2` | -14.27% |
| 71 | `COc1ccccc1C1SCC(=O)Nc2c1c(=O)[nH]n2C1CCOCC1` (centres unmarked) | 0.01595% |
| 72 | `CC(=O)N1CC(c2n[nH]c3ncccc23)C1` | -24.71% |
| 73 | `O=C(CSCC1CC1)N1CCCC(c2nccn2Cc2ccncc2)C1` (centres unmarked) | 20.76% & -0.5448% |
| 74 | `c1cncc(NCCNC2CSCCSC2)c1` | -12.54% |
| 75 | `CN(CC(=O)N1CCCCC1Cn1cccn1)C1CC1` (centres unmarked) | -31.4% |
| 76 | `Cc1cccc2sc(NC(=O)CN3CCCC(O)(CO)C3)nc12` (centres unmarked) | -47.91% |
| 77 | `CCc1cc(N2CC(N3CCCCC3C)C2)n2nccc2n1` (centres unmarked) | -10.67% |
| 78 | `Cc1[nH]nc2ncc(C(=O)N3CCCC3c3noc(C(C)C)n3)cc12` (centres unmarked) | -27.94% & -0.5847% |
| 79 | `O=C(NC1CC1)C1CN(Cc2ccc3c(c2)OCCO3)CCN1` (centres unmarked) | -26.66% & 7.284% |
| 80 | `O=C(NC[C@H]1OC[C@@H](NCc2ccccc2F)[C@@H]1O)Nc1ccccc1` | -2.729% & 9.269% |
| 81 | `COc1ccc(N2CCC(NS(=O)(=O)N(C)C(C)C)CC2)cc1` | 6.656% |
| 82 | `COc1ccc(C(CC(=O)O)NC(=O)c2cc(C)on2)cc1` (centres unmarked) | 11.22% & 14.88% |
| 83 | `O=C(c1cc(F)cc(F)c1)N1CCC2(CC1)CC2` | 14.04% & 2.704% |
| 84 | `CCN1CCN(CCNC(=O)c2sc(C)nc2C)CC1` | -12.75% |
| 85 | `CCN(Cc1cnn(C)c1)S(=O)(=O)N1CCCC1c1ccco1` (centres unmarked) | 23.31% & 2.496% |
| 86 | `Cn1nc(C(=O)NCc2ccc(F)cc2)c2c1CCS(=O)(=O)C2` | 31.22% |
| 87 | `OC(c1ccccn1)C1CCN(Cc2cc3n(n2)CCCNC3)CC1` (centres unmarked) | -31.71% |

For reference, 4 entries once more:

compound,percent effect
Cc1nc(CN2CCCn3c(nc(Cn4cncn4)cc3=O)C2)cs1.O=C(O)C(F)(F)F,-24.17%
O=C(NC1CC1)C1CN(Cc2ccc3c(c2)OCCO3)CCN1 (centres unmarked),-26.66% & 7.284%
CCS(=O)(=O)N(C)CCCNC(=O)c1cc(Cl)cc2cccnc12,18.74%
O=C(c1cc(F)cc(F)c1)N1CCC2(CC1)CC2,14.04% & 2.704%

Measurements from “University of Dundee, Small-Polar-MMV Screening Library” (2021), ChEMBL document CHEMBL3988442.